Assay results as given in patent US10996170B2, “Device and method for imaging shortwave infrared fluorescence” (Massachusetts Institute of Technology, priority 2016, dated 2021).

Tested on: brain vasculature
Assay: Noninvasive brain vasculature imaging through intact skin and skull (NIR vs SWIR detection)
Type: in vivo, mouse
Conditions: 0.2 mg/kg tail vein

`CC1(C)C(/C=C/C=C/C=C/C=C2\N(CCCCS(=O)(=O)O)c3ccc4ccccc4c3C2(C)C)=[N+](CCCCS(=O)(=O)[O-])c2ccc3ccccc3c21` [ICG, indocyanine green] was tested, and the “image contrast (coefficient of variation: standard deviation of pixel intensity / mean pixel intensity), SWIR image” value (808 nm excitation, InGaAs camera 1300-1620 nm) was 0.29, the “image contrast (coefficient of variation: standard deviation of pixel intensity / mean pixel intensity), NIR image” value (808 nm excitation, silicon camera at NIR wavelengths) was 0.20 and the “apparent vessel width (full width at half maximum), SWIR image” value (InGaAs camera 1300-1620 nm) was 210 μm. For the same compound, the “SWIR image contrast increase over NIR image” value (SWIR 1300-1620 nm vs NIR) was ~50% and the “apparent vessel width (full width at half maximum), NIR image” value (silicon camera NIR) was 430 μm.
